What all share (test): pull-down; co-expression in E. coli; sequential affinity purification: His•BTG2 on Co2+-agarose, then GST•Ccr4 on glutathione (Pierce GST spin columns); SDS/PAGE and immunoblot of the purified complexes
For orientation: A western blot detects proteins with antibodies after separation by electrophoresis.

By UniProt entry, the sequences of proteins in these tests, tags left out. Where a name states a change or a piece, a line headed by the entry shows the natural chain unless it says otherwise.
UniProt P78543: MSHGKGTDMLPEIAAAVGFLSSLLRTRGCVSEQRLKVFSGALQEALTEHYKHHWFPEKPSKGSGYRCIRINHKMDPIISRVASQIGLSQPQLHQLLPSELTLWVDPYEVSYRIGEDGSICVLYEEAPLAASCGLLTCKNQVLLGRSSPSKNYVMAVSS
UniProt Q9ULM6: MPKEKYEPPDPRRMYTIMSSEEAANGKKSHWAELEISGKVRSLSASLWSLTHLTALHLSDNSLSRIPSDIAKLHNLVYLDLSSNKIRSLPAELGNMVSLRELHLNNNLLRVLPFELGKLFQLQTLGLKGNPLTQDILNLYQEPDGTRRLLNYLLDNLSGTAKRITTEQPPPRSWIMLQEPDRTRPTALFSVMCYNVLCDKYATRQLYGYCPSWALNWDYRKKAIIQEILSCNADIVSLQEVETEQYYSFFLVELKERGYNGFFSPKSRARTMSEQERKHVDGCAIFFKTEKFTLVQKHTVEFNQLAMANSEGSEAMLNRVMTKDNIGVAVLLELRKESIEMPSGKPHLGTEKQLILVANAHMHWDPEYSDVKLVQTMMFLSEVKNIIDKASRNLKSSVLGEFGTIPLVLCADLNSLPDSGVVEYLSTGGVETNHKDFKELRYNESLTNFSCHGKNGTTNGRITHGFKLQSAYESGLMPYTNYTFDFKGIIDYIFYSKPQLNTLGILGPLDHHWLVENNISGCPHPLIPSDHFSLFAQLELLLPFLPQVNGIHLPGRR
UniProt Q9UIV1: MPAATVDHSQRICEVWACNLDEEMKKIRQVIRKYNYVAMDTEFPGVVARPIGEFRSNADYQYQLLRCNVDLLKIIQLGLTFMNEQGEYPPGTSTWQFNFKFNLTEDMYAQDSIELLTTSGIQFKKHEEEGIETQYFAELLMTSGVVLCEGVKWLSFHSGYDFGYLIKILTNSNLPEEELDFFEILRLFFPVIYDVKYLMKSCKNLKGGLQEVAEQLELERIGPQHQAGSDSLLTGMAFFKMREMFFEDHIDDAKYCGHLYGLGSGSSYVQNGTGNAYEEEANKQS

The target of test [1] is His•BTG2 (human) (UniProt P78543).
The target of test [2] is GST•Ccr4a (human) (UniProt Q9ULM6).
For test [3], the target named is GST•Ccr4a E240A (human) (UniProt Q9ULM6).

Among the data in article PMC4613498 are binding values, retold here.

These are yes or no findings as the source states them, for the method shown. In cells and extracts the contact can be indirect. Some results given as binding are weak or reduced against the parent protein; the word gives no strength.

As for “GST•Ccr4a E240A (from UniProt Q9ULM6 1-557) (enzyme)”, in test [1], the binding entry is recorded as “binds”.

As to “Caf1/CNOT7 D40A (from UniProt Q9UIV1 1-285) (enzyme)”, the binding entry in test [2] and in test [3] was “binds” in each case.

Turning to “Caf1/CNOT7 (from UniProt Q9UIV1 1-285) (enzyme)”, the binding entry in test [2] and in test [3] was “binds” in each case.

With “GST•Ccr4a (from UniProt Q9ULM6 1-557) (enzyme)”, the binding entry in test [1] is recorded as “binds”.
